Values of other authors in patent publication US20100292178A1, “Method of treating non-insulin dependent diabetes mellitus and related complications” (priority 2003, published 2010).
At least one structure is not confirmed: it was looked up by name or label, or the drawing left a doubt.

Conditions: berberine salts; printed as ratio; cited from earlier work

Compound: COc1ccc2cc3[n+](cc2c1OC)CCc1cc2c(cc1-3)OCO2.[Cl-] [hydrochloric berberine]
- solubility in water under room temperature: 1:500
